These are yes or no findings as the source states them, for the method shown. Binding seen in cells or lysates may run through a third protein. Some results given as binding are weak or reduced against the parent protein; the word gives no strength.
Columns and labels:
[1] = biological target: PARP1 (poly (ADP-ribose) polymerase 1) (human (endogenous in PC3)) (UniProt P09874); experiment: co-IP; endogenous proteins in PC3 cell lysates (IP Binding buffer with PMSF); antibody against PARP1 or HSP90AB1 or control IgG on protein A/G beads, overnight at 4 °C; western blot
[2] = biological target: HSP90AB1 (heat shock protein alpha family class B) (human (endogenous in PC3)) (UniProt P08238); experiment: as above

The chains behind the UniProt entries cited, without tags or fusion partners.
UniProt P09874: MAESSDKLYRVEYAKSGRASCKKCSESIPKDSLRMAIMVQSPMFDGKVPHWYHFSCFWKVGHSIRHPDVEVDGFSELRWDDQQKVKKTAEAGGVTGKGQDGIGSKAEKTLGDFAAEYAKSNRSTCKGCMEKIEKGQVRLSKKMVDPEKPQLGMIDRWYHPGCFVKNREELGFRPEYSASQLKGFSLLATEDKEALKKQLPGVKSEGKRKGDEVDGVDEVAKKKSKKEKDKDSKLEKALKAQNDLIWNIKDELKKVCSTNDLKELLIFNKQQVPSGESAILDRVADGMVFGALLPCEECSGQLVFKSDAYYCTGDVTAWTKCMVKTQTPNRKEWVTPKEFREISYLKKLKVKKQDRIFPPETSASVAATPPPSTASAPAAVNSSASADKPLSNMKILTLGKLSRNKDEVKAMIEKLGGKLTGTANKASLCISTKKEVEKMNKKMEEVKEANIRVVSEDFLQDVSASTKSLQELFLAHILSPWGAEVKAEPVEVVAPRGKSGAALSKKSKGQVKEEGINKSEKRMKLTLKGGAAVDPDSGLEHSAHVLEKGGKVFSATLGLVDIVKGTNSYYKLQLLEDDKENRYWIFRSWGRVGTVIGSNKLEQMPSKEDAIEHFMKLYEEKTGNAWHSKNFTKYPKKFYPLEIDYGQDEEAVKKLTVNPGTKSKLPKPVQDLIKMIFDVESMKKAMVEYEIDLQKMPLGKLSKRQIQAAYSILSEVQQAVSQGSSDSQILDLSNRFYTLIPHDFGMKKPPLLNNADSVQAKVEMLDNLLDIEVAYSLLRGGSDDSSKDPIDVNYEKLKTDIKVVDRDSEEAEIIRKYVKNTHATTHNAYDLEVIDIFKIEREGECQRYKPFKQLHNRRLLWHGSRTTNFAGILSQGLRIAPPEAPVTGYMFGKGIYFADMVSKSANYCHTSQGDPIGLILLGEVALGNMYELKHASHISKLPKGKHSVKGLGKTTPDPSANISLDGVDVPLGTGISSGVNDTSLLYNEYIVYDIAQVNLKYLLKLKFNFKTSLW
UniProt P08238: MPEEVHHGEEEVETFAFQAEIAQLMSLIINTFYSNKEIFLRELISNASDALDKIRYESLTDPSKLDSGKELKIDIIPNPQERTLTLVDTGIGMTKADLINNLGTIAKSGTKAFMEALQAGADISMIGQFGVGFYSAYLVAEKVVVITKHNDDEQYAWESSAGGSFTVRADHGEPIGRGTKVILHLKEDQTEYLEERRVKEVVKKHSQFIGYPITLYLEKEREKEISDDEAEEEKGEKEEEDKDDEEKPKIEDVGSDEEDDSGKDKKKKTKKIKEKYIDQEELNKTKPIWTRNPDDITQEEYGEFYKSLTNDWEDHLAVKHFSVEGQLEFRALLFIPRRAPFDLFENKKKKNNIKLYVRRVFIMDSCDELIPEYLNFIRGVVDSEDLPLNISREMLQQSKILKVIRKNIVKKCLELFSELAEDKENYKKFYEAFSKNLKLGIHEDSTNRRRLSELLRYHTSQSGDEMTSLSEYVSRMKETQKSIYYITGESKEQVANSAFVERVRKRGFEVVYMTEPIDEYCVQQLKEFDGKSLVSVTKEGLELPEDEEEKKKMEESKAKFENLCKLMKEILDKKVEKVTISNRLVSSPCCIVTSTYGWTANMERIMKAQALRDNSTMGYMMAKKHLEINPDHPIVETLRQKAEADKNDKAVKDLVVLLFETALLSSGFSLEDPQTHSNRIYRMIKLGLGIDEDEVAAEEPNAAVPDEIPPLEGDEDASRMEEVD

| binding [1] | binding [2] | Substance |
| --- | --- | --- |
| binds | – | HSP90AB1 (heat shock protein alpha family class B) (from UniProt P08238 1-724) |
| – | binds | PARP1 (poly (ADP-ribose) polymerase 1) (from UniProt P09874 1-1014) |

— article PMC10324254
